Laboratory results: PubChem BioAssay AID540276 (National Center for Advancing Translational Sciences (NCATS), 2011)
Where “and” joins values, the source holds several entries; their conditions need not be identical. Equal entries are not always repeated. In all, about 300,000 compounds went through this assay and about 5,400 (1.8%) were called active. Inconclusive means that the source gave no clear call. Such entries were picked first, then a sample of the others. The call rests on the fitted dose curve; tested in HEK293 cells. A potency beside an inconclusive call is a rough fit, not a confirmed value.

Experiment: qHTS for inhibitors of binding or entry into cells for Marburg Virus
Details: Marburg virus pseudotyped entry inhibition, cell reporter; series mostly up to 37.8 µM
Potency means the concentration at half of the fitted maximal effect.

Row | Structure (SMILES) | Potency
1 | COc1cc(OC)cc(C(=O)N2CCN(C(=O)c3ccc(OC)c(OC)c3)CC2)c1 | inactive
2 | CN(C)c1ccc(CNC(=O)C(Cc2ccccc2)NS(=O)(=O)c2ccc3c(c2)oc(=O)n3C)cc1 (stereo not given) | inconclusive: 15.8 µM [activator, single point]
3 | O=C(NCCc1ccccc1)c1ccccc1NC(=O)C1CCCO1 (stereo not given) | inconclusive: 0.562 µM [activator, full curve, poor fit]
4 | CC[N+](C)(C)Cc1ccccc1Br | inactive and inconclusive: 2.59 µM [inhibitor, partial curve]
5 | CCCn1nc(NC(=O)C2CCCO2)c2cc3ccc(C)cc3nc21 (stereo not given) | inconclusive: 12.6 µM [inhibitor, partial curve, poor fit]
6 | Cc1ccc(N(CC(=O)Nc2ccc(Br)c(C)c2)S(=O)(=O)c2cccs2)cc1 | inconclusive: 1.26 µM [inhibitor, partial curve, poor fit]
7 | O=C(CCCc1ccccc1)c1ccccc1 | inconclusive: 3.55 µM [activator, partial curve, poor fit]
8 | CC(=O)c1cccc(NC(=O)c2ccccc2OCc2ccc(F)cc2)c1 | inconclusive: 2.51 µM [inhibitor, partial curve, poor fit]
9 | CC1=NNC(=O)C1CC(=O)N/N=C/c1ccc(C)o1 (stereo not given) | inconclusive: 1.26 µM [inhibitor, single point]
10 | COc1cc(-c2nnc(SCC(=O)NC(C)C)o2)cc(OC)c1OC | inactive
11 | Cc1noc(C)c1COc1ccc(C(=O)N2CCN(c3cccc(Cl)c3)CC2)cc1 | inconclusive: 35.5 µM [inhibitor, single point]
12 | S=c1nc(-c2sccc2OCc2ccc(Cl)cc2Cl)[nH][nH]1 | inconclusive: 3.16 µM [activator, partial curve, poor fit]
13 | COC(=O)Cn1c(=O)c2c(nc3n2CCCN3Cc2ccccc2)n(C)c1=O | inactive
14 | CC1=C(c2ccc(C(C)C)cc2)S(=O)(=O)N=C1N1CCN(C(=O)c2ccco2)CC1 | inactive
15 | N#C/C(=N\Nc1cccc([N+](=O)[O-])c1)C(=O)c1ccc(Br)cc1 | inconclusive: 7.08 µM [inhibitor, partial curve, poor fit]
16 | O=[N+]([O-])c1ccc2c(c1)C(=Nc1ccccc1)c1ccccc1-2 | inconclusive: 5.62 µM [inhibitor, partial curve, poor fit]
17 | CC(=O)NC/C(C)=N\Nc1ccc([N+](=O)[O-])cc1 | inconclusive: 12.6 µM [inhibitor, partial curve, poor fit]
18 | CCN1CC(CN(C)Cc2nc(-c3ccc(OC)c4ccccc34)oc2C)CC1=O (stereo not given) | inconclusive: 1.58 µM [inhibitor, single point]
19 | CNC(=O)ON(C(=O)NC)C1N(C)C(=S)SC1(C)C (stereo not given) | inconclusive: 18.3 µM [inhibitor, single point]
20 | CCOc1ncccc1C(=O)OCc1cc(=O)oc2c(C)c(C)ccc12 | inconclusive: 0.651 µM [activator, full curve]

Copied from the list:
Entry for O=C(NCCc1ccccc1)c1ccccc1NC(=O)C1CCCO1 (stereo not given) under Potency: inconclusive: 0.562 µM [activator, full curve, poor fit]
Entry for CN(C)c1ccc(CNC(=O)C(Cc2ccccc2)NS(=O)(=O)c2ccc3c(c2)oc(=O)n3C)cc1 (stereo not given) under Potency: inconclusive: 15.8 µM [activator, single point]

Additional records

Row | Structure (SMILES) | Potency
21 | COc1ccc(C)cc1NC(=S)N1CCN(c2ccccn2)CC1 | inconclusive: 35.5 µM [activator, single point]
22 | O=C(CCCn1c(=O)c2ccccc2n(CC(=O)Nc2ccc(F)cc2F)c1=O)NCc1ccccc1Cl | inactive
23 | O=C(COC(=O)c1cccc(NS(=O)(=O)c2ccc(F)c(F)c2)c1)NC(=O)NC1CCCCC1 | inconclusive: 8.91 µM [inhibitor, single point]
24 | CCOC(=O)c1c(C)nc(C)c(C(=O)OCC)c1-c1ccc(OC)cc1 | inconclusive: 9.2 µM [inhibitor, partial curve, poor fit]
25 | O=C(N/N=C/C=C/c1ccccc1)c1cc(C2CC2)[nH]n1 | inconclusive: 35.5 µM [activator, single point]
26 | O=C(CSc1nnc(Cc2ccccc2)o1)NCCN1C(=O)CSC1=O | inconclusive: 6.51 µM [activator, single point]
27 | COc1ccc(C(=O)NCC2CCCO2)cc1S(=O)(=O)N1CCCc2ccccc21 (stereo not given) | inconclusive: 12.6 µM [inhibitor, partial curve, poor fit]
28 | COC(=O)c1ccc(CN2C(=O)[C@@]3(CC(C)=C[C@@H](COc4ccccc4)O3)c3ccccc32)cc1 | inactive
29 | Oc1ccc2ccccc2c1CNc1ccc2ccccc2c1 | inconclusive: 35.5 µM [inhibitor, single point]
30 | Cc1ccc2c(c1C)-c1c(ccc(C)c1C)C(=O)C2=O | inconclusive: 7.08 µM [inhibitor, full curve, poor fit]
31 | CCOc1ccc(NC(=O)C2CCCN2C(=O)Oc2ccccc2)cc1 (stereo not given) | inactive
32 | COc1cccc(OC)c1Cn1nnc2c(=O)[nH]c(C3CCN(C(=O)c4ccccc4)CC3)nc21 | inconclusive: 0.562 µM [activator, full curve, poor fit]
33 | Cc1ccc(C(=O)Nc2cccc3cccnc23)cc1Br | inconclusive: 6.31 µM [activator, single point]
34 | CC(C)(C)c1cc[n+](/C(C(=S)NC2CC2)=C(/[O-])c2ccc(Cl)s2)cc1 | inconclusive: 29.1 µM [inhibitor, single point]
35 | COc1ccc(-n2c(Cc3cccn3C)nnc2SCC(=O)Nc2cc(Cl)ccc2OC)cc1 | inconclusive: 18.4 µM [inhibitor, single point]
36 | Cc1ccccc1CS(=O)(=O)c1nnc([C@H](Cc2ccccc2)NC(=O)OC(C)(C)C)o1 | inconclusive: 0.259 µM [inhibitor, full curve, poor fit]
37 | Cc1sc(NC(=O)CSc2nnc3scc(-c4ccccc4)n23)c(C#N)c1C | inconclusive: 25.9 µM [inhibitor, single point]
38 | O=C1C=C(OCc2ccccc2)CN1 | inconclusive: 6.51 µM [inhibitor, single point]
39 | CC(C)(C)S(=O)(=O)c1cnc(N2CCCCC2)nc1N | inconclusive: 3.55 µM [activator, full curve]
40 | COc1ccc(/C=C/C(=O)NC(=S)Nc2ccc(S(=O)(=O)Nc3nccnc3OC)cc2)cc1 | inconclusive: 0.708 µM [inhibitor, full curve]
